The chains are these.
B1: BRIX1 (protein, UniProt Q8TDN6 1-353, looked up)
Ribosome biogenesis protein …: MAATKRKRRGGFAVQAKKPKRNEIDAEPPAKRHATAEEVEEEERDRIPGPVCKGKWKNKERILIFSSRGINFRTRHLMQDLRMLMPHSKADTKMDRKDKLFVINEVCEMKNCNKCIYFEAKKKQDLYMWLSNSPHGPSAKFLVQNIHTLAELKMTGNCLKGSRPLLSFDPAFDELPHYALLKELLIQIFSTPRYHPKSQPFVDHVFTFTILDNRIWFRNFQIIEEDAALVEIGPRFVLNLIKIFQGSFGGPTLYENPHYQSPNMHRRVIRSITAAKYREKQQVKDVQKLRKKEPKTLLPHDPTADVFVTPAEEKPIEIQWVKPEPKVDLKARKKRIYKRQRKMKQRMDSGKTK
B2: RBM39 (protein, UniProt Q14498 2-530, looked up)
RNA-binding protein 39: ADDIDIEAMLEAPYKKDENKLSSANGHEERSKKRKKSKSRSRSHERKRSKSKERKRSRDRERKKSKSRERKRSRSKERRRSRSRSRDRRFRGRYRSPYSGPKFNSAIRGKIGLPHSIKLSRRRSRSKSPFRKDKSPVREPIDNLTPEERDARTVFCMQLAARIRPRDLEEFFSTVGKVRDVRMISDRNSRRSKGIAYVEFVDVSSVPLAIGLTGQRVLGVPIIVQASQAEKNRAAAMANNLQKGSAGPMRLYVGSLHFNITEDMLRGIFEPFGRIESIQLMMDSETGRSKGYGFITFSDSECAKKALEQLNGFELAGRPMKVGHVTERTDASSASSFLDSDELERTGIDLGTTGRLQLMARLAEGTGLQIPPAAQQALQMSGSLAFGAVAEFSFVIDLQTRLSQQTEASALAAAASVQPLATQCFQLSNMFNPQTEEEVGWDTEIKDDVIEECNKHGGVIHIYVDKNSAQGNVYVKCPSIAAAIAAVNALHGRWFAGKMITAAYVPLPTYHNLFPDSMTATQLLVPSRR
B3: ##UTP14C (protein, UniProt Q5TAP6 1-766, looked up)
U3 small nucleolar …: MNVNQVAENLALSHQEELVDLPKNYPLSENEDEGDSDGERKHQKLLEAIISLDGKNRRKLAERSEASLKVSEFSVSSEGSGEKLGLADLLEPVKTSSSLATVKKQLNRVKSKKVVELPLNKEKIEQIHREVAFSKTSQVLSKWDPIILKNQQAEQLVFPLGKEQPAIAPIEHALSGWKARTPLEQEIFNLLHKNKQPVTDPLLTPMEKASLQAMSLEEAKMHRAELQRARALQSYYEAKARKEKKIKSKKYHKVVKKGKAKKALKEFEQLQKVNPTVALEEMEKIENARMMERMSLKHQNSGKWAKSKAIMAKYDLEARQAMQEQLAKNKELTQKLQVASESEEEEGGTEVEELLVPHVANEVQMNVDGPNPWMFRSCTSDTKEAATQEDPEQVPELAAHEVSASEAEERPVAEEEILLREFEERQSLRKRSELNQDAEPASSQETKDSSSQEVLSELRALSQKLKEKHQSRKQKASSEGTVPQVQREEPAPEEAEPLLLQRSERVQTLEELEELGKEDCFQNKELPRPVLEGQQSERTPNNRPDAPKEKKEKEQLINLQNFLTTQSPSVRSLAVPTIIEELEDEEERDQRQMIKEAFAGDDVIRDFLKEKREAVEASKPKDVDLTLPGWGEWGGVGLKPSAKKRRQFLIKAPEGPPRKDKNLPNVIISEKRNIHAAAHQVQVLPYPFTHHRQFERTIQTPIGSTWNTQRAFQKLTTPKVVTKPGHIIKPIKAEDVGYQSSSRSDLPVIQRNPKRITTRHNKEEKL
B4: ##PDE4B (protein, UniProt Q07343 1-736, looked up)
3',5'-cyclic-AMP …: MKKSRSVMTVMADDNVKDYFECSLSKSYSSSSNTLGIDLWRGRRCCSGNLQLPPLSQRQSERARTPEGDGISRPTTLPLTTLPSIAITTVSQECFDVENGPSPGRSPLDPQASSSAGLVLHATFPGHSQRRESFLYRSDSDYDLSPKAMSRNSSLPSEQHGDDLIVTPFAQVLASLRSVRNNFTILTNLHGTSNKRSPAASQPPVSRVNPQEESYQKLAMETLEELDWCLDQLETIQTYRSVSEMASNKFKRMLNRELTHLSEMSRSGNQVSEYISNTFLDKQNDVEIPSPTQKDREKKKKQQLMTQISGVKKLMHSSSLNNTSISRFGVNTENEDHLAKELEDLNKWGLNIFNVAGYSHNRPLTCIMYAIFQERDLLKTFRISSDTFITYMMTLEDHYHSDVAYHNSLHAADVAQSTHVLLSTPALDAVFTDLEILAAIFAAAIHDVDHPGVSNQFLINTNSELALMYNDESVLENHHLAVGFKLLQEEHCDIFMNLTKKQRQTLRKMVIDMVLATDMSKHMSLLADLKTMVETKKVTSSGVLLLDNYTDRIQVLRNMVHCADLSNPTKSLELYRQWTDRIMEEFFQQGDKERERGMEISPMCDKHTASVEKSQVGFIDYIVHPLWETWADLVQPDAQDILDTLEDNRNWYQSMIPQSPSPPLDEQNRDCQGLMEKFQFELTLDEEDSEGPEKEGEGHSYFSSTKTLCVIDPENRDSLGETDIDIATEDKSPVDT
B5: ##IRAK2 (protein, UniProt O43187 1-625, looked up)
Interleukin-1 …: MACYIYQLPSWVLDDLCRNMDALSEWDWMEFASYVITDLTQLRKIKSMERVQGVSITRELLWWWGMRQATVQQLVDLLCRLELYRAAQIILNWKPAPEIRCPIPAFPDSVKPEKPLAASVRKAEDEQEEGQPVRMATFPGPGSSPARAHQPAFLQPPEEDAPHSLRSDLPTSSDSKDFSTSIPKQEKLLSLAGDSLFWSEADVVQATDDFNQNRKISQGTFADVYRGHRHGKPFVFKKLRETACSSPGSIERFFQAELQICLRCCHPNVLPVLGFCAARQFHSFIYPYMANGSLQDRLQGQGGSDPLPWPQRVSICSGLLCAVEYLHGLEIIHSNVKSSNVLLDQNLTPKLAHPMAHLCPVNKRSKYTMMKTHLLRTSAAYLPEDFIRVGQLTKRVDIFSCGIVLAEVLTGIPAMDNNRSPVYLKDLLLSDIPSSTASLCSRKTGVENVMAKEICQKYLEKGAGRLPEDCAEALATAACLCLRRRNTSLQEVCGSVAAVEERLRGRETLLPWSGLSEGTGSSSNTPEETDDVDNSSLDASSSMSVAPWAGAATPLLPTENGEGRLRVIVGREADSSSEACVGLEPPQDVTETSWQIEINEAKRKLMENILLYKEEKVDSIELFGP
B6: ##BOK (protein, UniProt Q9UMX3 1-212, looked up)
Bcl-2-related ovarian killer …: MEVLRRSSVFAAEIMDAFDRSPTDKELVAQAKALGREYVHARLLRAGLSWSAPERAAPVPGRLAEVCAVLLRLGDELEMIRPSVYRNVARQLHISLQSEPVVTDAFLAVAGHIFSAGITWGKVVSLYAVAAGLAVDCVRQAQPAMVHALVDCLGEFVRKTLATWLRRRGGWTDVLKCVVSTDPGLRSHWLVAALCSFGRFLKAAFFVLLPER
B7: SAP30BP (protein)
chain: MAGKKNVLSSLAVYAEDSEPESDGEAGIEAVGSAAEEKGGLVSDAYGEDDFSRLGGDEDGYEEEEDENSRQSEDDDSETEKPEADDPKDNTEAEKRDPQELVASFSERVRNMSPDEIKIPPEPPGRCSNHLQDKIQKLYERKIKEGMDMNYIIQRKKEFRNPSIYEKLIQFCAIDELGTNYPKDMFDPHGWSEDSYYEALAKAQKIEMDKLEKAKKERTKIEFVTGTKKGTTTNATSTTTTTASTAVADAQKRKSKWDSAIPVTTIAQPTILTTTATLPAVVTVTTSASGSKTTVISAVGTIVKKAKQ
B8: FAM133A (protein, UniProt Q8N9E0 1-248, looked up)
Protein FAM133A: MGKRDNRVAYMNPIAMARWRGPTQSVGPTIQDYLNRPRPTWEEVKKQLENKKTGSKALAEFEEKMNENWKKELEKSREKLLSGNESSSKKRERKKKRKKKSCRSSSSSSSSDSSSSSSDSEDEEKKQGKRRKKKKNRSYKSSQSSTHESESESKESVKKKKKSKDETEKEKDVRSLSKKRKKSYPDDKPLSSESSSESDYEEDVQAKKKRRCEEREQAKEKVKKKKKKQHKKHSKKKKKKSGSSHKSR
B9: ALDH1A1 (protein, UniProt P00352 2-501, looked up)
Aldehyde dehydrogenase 1A1: SSSGTPDLPVLLTDLKIQYTKIFINNEWHDSVSGKKFPVFNPATEEELCQVEEGDKEDVDKAVKAARQAFQIGSPWRTMDASERGRLLYKLADLIERDRLLLATMESMNGGKLYSNAYLNDLAGCIKTLRYCAGWADKIQGRTIPIDGNFFTYTRHEPIGVCGQIIPWNFPLVMLIWKIGPALSCGNTVVVKPAEQTPLTALHVASLIKEAGFPPGVVNIVPGYGPTAGAAISSHMDIDKVAFTGSTEVGKLIKEAAGKSNLKRVTLELGGKSPCIVLADADLDNAVEFAHHGVFYHQGQCCIAASRIFVEESIYDEFVRRSVERAKKYILGNPLTPGVTQGPQIDKEQYDKILDLIESGKKEGAKLECGGGPWGNKGYFVQPTVFSNVTDEMRIAKEEIFGPVQQIMKFKSLDDVIKRANNTFYGLSAGVFTKDIDKAITISSALQAGTVWVNCYGVVSAQCPFGGFKMSGNGRELGEYGFHEYTEVKTVTVKISQKNS
B10: LIAT1 (protein, UniProt Q6ZQX7 1-453, looked up)
Protein LIAT1: METRGPGLAVRAESRRLVGIGPRAPPGRVGLQPSGRLDRRGGAGTMGYKDNDGEEEEREGGAAGPRGSRLPPITGGASELAKRKVKKKKRKKKTKGSGKGDDKHQSQSLKSQPLSSSFHDILSPCKERGPKPEHRQSKVEKKHLPSDSSTVSLPDFAEIENLANRINESLRWDGILADPEAEKERIRIYKLNRRKRYRCLALKGFHPDPEALKGFHPDPDALKGFHPDPEALKGFHPDPEALKGFHPDPEALKGFHPDPEALKGIHPDPEALKGIHPDPEALKGFHPDPEALKGFHPDPEALKGFHTDPEALKGFHIDPEALKGFHPDPKALKGFHPDPKALKGFHTDPEALKGFHPDPKALKGFHPDPEALKGFHPDPEALKGFHPDPEALKGFHTDPNAEEAPENLPYLSDKDGSSSHRQPTSKAECPNLCFEGNLTPKLLHSDLAPTLLE
B11: HSP90B2P (protein, UniProt Q58FF3 1-399, looked up)
Putative endoplasmin-like …: MAETIQEVEDEYKAFCKSFSKESDDPVACIHFTAEGEVTFKSILFVPTFVPRGLFDEYGSKKSDYIKLYVRCVFITDDFRDTMPKNLNFVKGVVDSGGLSLNVSCETLQQHKLLKVIRKKLVHKTLDMIKKIADEKYNDTFWKEFGTNIKLGVIEDHSNRTCLAKLLRFQSSHHPADITSLHQDVERMKEKQDKICLMAGGYEVIYLTEPVVEYCIQALPEFDGKRFQNVAKEGVKFDDSEKTKESHEAVEKEFEPLPNWVKDKAIKDKIEKAMVSQCLTESLCALVASQYGWSGNMERIMKAQAYQTGKGISTNYHASRKKTFEINPRHPLIRDMLRRIKEDEDDKTVLDLAVVEEPDEEPEETAEDKEQDKDKEMDVGTDEEKQETAKESTAEKDEL

The first data set concerns mSWI/SNF complexes. Briefly: mSWI/SNF complex purification with HA-tagged baits and mass spectrometry (peptide counts). Details: species or system human. The note with it: 293_HA-BRD7: HA-BRD7 bait purification, total peptide count per co-purified protein.
As for B1, the Total is on record as 14.

In the case of B2, the Total was 12.

Still in this data set, the particulars now being: 293_HA-BRD7: HA-BRD7 bait purification, unique peptide count per co-purified protein.
Regarding B1, the Unique came out at 11.

Consider B2, for which the Unique turned out to be 11.

The data set is the same for the next values; noted with them: 293_HA-BRD7 bait purification, mass spectrometry; total peptide count per identified protein.
In turn, B3 came in with a Total of 1.

In turn, B4 came in with a Total of 1.

B5 came in with a Total of 1.

Consider B6, for which the Total turned out to be 1.

For the molecule B7, the Total was found to be 1.

The molecule B8 came in with a Total of 1.

The molecule B9 displayed a Total of 1.

Molecule B10 yielded a Total of 1.

Turning to B11, the Total turned out to be 1.

The same data set, now with this note: 293_HA-BRD7 bait purification, mass spectrometry; unique peptide count per identified protein.
B3 registered a Unique of 1.

The molecule B4 showed a Unique of 1.

Turning to B5, the Unique came out at 1.

Molecule B6 showed a Unique of 1.

As for B7, the Unique came out at 1.

With B8, the Unique is on record as 1.

For B9, the Unique came out at 1.

Turning to B10, the Unique is 1.

With B11, the Unique came to 1.
